One substance from publication PMC6643443 can be followed below.

Amino acid sequences for entries named in this document (tags omitted).
UniProt P63280: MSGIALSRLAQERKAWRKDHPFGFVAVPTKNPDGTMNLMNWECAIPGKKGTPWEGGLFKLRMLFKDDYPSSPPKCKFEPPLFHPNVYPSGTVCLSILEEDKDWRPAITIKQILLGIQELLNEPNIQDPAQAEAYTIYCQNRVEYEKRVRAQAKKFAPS

The target of test [1] is T1, Interferon regulatory factor 1 (IRF1), endogenous in ox-LDL loaded macrophages (mouse (endogenous in peritoneal macrophages)) (UniProt P15314).
T1 sequence: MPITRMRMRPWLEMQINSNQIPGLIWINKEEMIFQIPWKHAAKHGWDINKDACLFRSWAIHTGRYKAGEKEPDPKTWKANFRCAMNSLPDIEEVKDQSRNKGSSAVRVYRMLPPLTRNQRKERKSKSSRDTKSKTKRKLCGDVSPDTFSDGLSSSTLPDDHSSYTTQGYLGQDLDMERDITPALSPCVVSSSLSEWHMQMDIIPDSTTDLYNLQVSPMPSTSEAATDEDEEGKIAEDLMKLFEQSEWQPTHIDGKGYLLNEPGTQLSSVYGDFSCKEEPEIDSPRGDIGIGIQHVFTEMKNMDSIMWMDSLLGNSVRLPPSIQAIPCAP
Kind of test: affinity purification with mass spectrometry; immunoprecipitation of IRF1 from ox-LDL loaded macrophages challenged with LPS; co-precipitated proteins separated by SDS-PAGE and identified by mass spectrometry.

The target in test [2] is T1, Interferon regulatory factor 1 (IRF1), endogenous in ox-LDL loaded macrophages (mouse (endogenous in peritoneal macrophages)). In words: affinity purification with mass spectrometry; immunoprecipitation of IRF1 from ox-LDL loaded macrophages, control group without LPS treatment; co-precipitated proteins separated by SDS-PAGE and identified by mass spectrometry.

These are yes or no findings as the source states them, for the method shown. Binding seen in cells or lysates may run through a third protein. Here binding means that the protein was enriched with, or labelled near, the bait; the list need not be complete. For some assays here: A no says only that the protein was not detected with the bait.

Regarding “Ubc9, SUMO E2-conjugating enzyme, endogenous in ox-LDL loaded macrophages (from UniProt P63280 1-158)”, the binding entry in test [1] was “no binding (only with LPS challenge)”; in test [2] it was “binds”.
